Data as given in PubChem BioAssay AID1053208 (Peter MacCallum Cancer Centre, 2014)
Screen: 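Synthetic lethal interactions between gene loss and doxorubicin in osteosarcoma cells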 (primary screen). Cells: mouse osteosarcoma cells, early-passage culture from an engineered mouse model of fibroblastic bone tumour. Reagent: siRNA pool against mouse genes, 40 nM. Time to read-out: about 120 h (48 h before drug, then 72 h with drug). Challenge: doxorubicin 100 nM for 72 h, roughly 30-40% inhibitory dose. Measurement: 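Viability read as ATP luminescence after 72 h of 100 nM doxorubicin or none, duplicate wells averaged, scaled to non-targeting siRNA, then expressed as robust z-scores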. Reading the numbers: viability z-score with doxorubicin: higher = more viable cells under doxorubicin; viability z-score without drug: higher = more viable cells with knock-down alone; z-score of drug to no-drug ratio: higher = less drug sensitisation by knock-down. Call rule: 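Called active if knock-down leaves viability unchanged without drug (z within -2 to 2) but lowers it with doxorubicin (z at or under -2)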.
Shown is a random part of about 17,000 deposited reagents. In the full data, 788 (4.7%) are marked active. 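Calls rest on z-score classes alone; an extra cut-off of viability at most 70% of control was not applied to them.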 Entries without a mark were called inactive. Reagents against one gene are numbered here. Further read-outs or replicates are left out here.

no.	gene	reagent no.	combined z-score class	viability z-score with doxorubicin	viability z-score without drug	z-score of drug to no-drug ratio
1	Nat8f3 (GeneID 93674)	1	no change with or without drug	-1.69	-0.34	-1.46
2	Flii (GeneID 14248)	1	no change with or without drug	0.67	1.18	0
3	Or5w16 (GeneID 258635)	1	no change with or without drug	0.67	0.17	0.67
4	Cacng7 (GeneID 81904)	1	no change with or without drug	0	0.51	-0.22
5	Col23a1 (GeneID 237759)	1	no change with or without drug	1.91	1.52	1.01
6	Tbx18 (GeneID 76365)	1	high cell count without drug only	-0.45	2.53	-1.8
7	Srsf4 (GeneID 57317)	1	no change with or without drug	0.11	1.85	-0.9
8	Dnajc10 (GeneID 66861)	1	no change with or without drug	1.12	1.69	0.11
9	Gab1 (GeneID 14388)	1	no change with or without drug	-0.22	0.17	-0.22
10	Pyurf (GeneID 66459)	1	no change with or without drug	1.8	1.52	0.9
11	Zfx (GeneID 22764)	1	high cell count with and without drug	3.26	2.36	1.69
12	Sorcs3 (GeneID 66673)	1	no change with or without drug	-0.45	-0.84	0.22
13	Ankrd34b (GeneID 218440)	1	no change with or without drug	1.24	1.01	0.67
14	Tpsb2 (GeneID 17229)	1	no change with or without drug	0.67	0.17	0.67
15	Bin3 (GeneID 57784)	1	no change with or without drug	-0.22	-0.17	0
16	Spcs2 (GeneID 66624)	1	no change with or without drug	0.45	0.84	0
17	Oas1h (GeneID 246729)	1	no change with or without drug	-0.11	-0.51	0.34
18	Dusp16 (GeneID 70686)	1	no change with or without drug	0.22	0.17	0.22
19	Prl7a1 (GeneID 19113)	1	no change with or without drug	0.79	-0.17	1.01
20	Tagap (GeneID 72536)	1	no change with or without drug	1.01	-0.67	1.69
21	Crtam (GeneID 54698)	1	no change with or without drug	0	-0.17	0.22
22	Fbxo41 (GeneID 330369)	1	no change with or without drug	0.67	1.52	-0.22
23	Zer1 (GeneID 227693)	1	no change with or without drug	-1.35	-1.52	-0.34
24	Htr2c (GeneID 15560)	1	no change with or without drug	-0.34	-0.34	0
25	Metap1 (GeneID 75624)	1	no change with or without drug	-0.11	-1.18	0.9
26	Usf2 (GeneID 22282)	1	no change with or without drug	0.22	-0.17	0.45
27	Lypd1 (GeneID 72585)	1	no change with or without drug	0.67	1.18	0
28	AU014748	1	no change with or without drug	-0.11	0.17	-0.11
29	Bcl2l1 (GeneID 12048)	1	no change with or without drug	-1.12	-0.67	-0.67
30	Taf1b (GeneID 21340)	1	no change with or without drug	-0.9	-1.18	0
31	Pdc (GeneID 20028)	1	no change with or without drug	-0.67	0.67	-1.01
32	Drd1 (GeneID 13488)	1	no change with or without drug	0	0.34	-0.11
33	Dmap1 (GeneID 66233)	1	no change with or without drug	-0.45	0.17	-0.45
34	Il1rl1 (GeneID 17082)	1	no change with or without drug	-0.56	-1.01	0.22
35	Tbck (GeneID 271981)	1	no change with or without drug	-0.22	0.51	-0.45
36	Tbck (GeneID 271981)	2	no change with or without drug	-0.45	-1.01	0.34
37	Pnck (GeneID 93843)	1	low cell count with doxorubicin only (active)	-3.37	1.18	-3.93
38	Ackr1 (GeneID 13349)	1	no change with or without drug	-0.34	-0.51	0.11
39	H2-T23 (GeneID 15040)	1	no change with or without drug	-0.56	-0.51	-0.11
40	Tmem87a (GeneID 211499)	1	no change with or without drug	0.11	0.51	-0.11
41	Nktr (GeneID 18087)	1	no change with or without drug	0.67	-1.01	1.57
42	Hoxc8 (GeneID 15426)	1	no change with or without drug	0	0.51	-0.22
43	Mrps21 (GeneID 66292)	1	no change with or without drug	0.34	-1.01	1.24
44	Rbm43 (GeneID 71684)	1	no change with or without drug	-0.67	-0.34	-0.34
45	Atrnl1 (GeneID 226255)	1	no change with or without drug	0.9	-0.84	1.69
46	Sclt1 (GeneID 67161)	1	no change with or without drug	0.9	-0.17	1.24
47	Chchd1 (GeneID 66121)	1	no change with or without drug	-0.45	0.51	-0.67
48	Or10al6 (GeneID 258285)	1	low cell count with and without drug	-3.6	-3.2	-1.8
49	Gli2 (GeneID 14633)	1	no change with or without drug	-0.56	-0.17	-0.34
50	Bmpr2 (GeneID 12168)	1	no change with or without drug	0	-0.84	0.67

Copied from above (7 entries):
no.	gene	reagent no.	combined z-score class	viability z-score with doxorubicin	viability z-score without drug	z-score of drug to no-drug ratio
25	Metap1 (GeneID 75624)	1	no change with or without drug	-0.11	-1.18	0.9
26	Usf2 (GeneID 22282)	1	no change with or without drug	0.22	-0.17	0.45
27	Lypd1 (GeneID 72585)	1	no change with or without drug	0.67	1.18	0
28	AU014748	1	no change with or without drug	-0.11	0.17	-0.11
29	Bcl2l1 (GeneID 12048)	1	no change with or without drug	-1.12	-0.67	-0.67
30	Taf1b (GeneID 21340)	1	no change with or without drug	-0.9	-1.18	0
31	Pdc (GeneID 20028)	1	no change with or without drug	-0.67	0.67	-1.01
